Reference: PMC5572376

Amino acid sequences for entries named in this document (tags omitted).
UniProt P0A031: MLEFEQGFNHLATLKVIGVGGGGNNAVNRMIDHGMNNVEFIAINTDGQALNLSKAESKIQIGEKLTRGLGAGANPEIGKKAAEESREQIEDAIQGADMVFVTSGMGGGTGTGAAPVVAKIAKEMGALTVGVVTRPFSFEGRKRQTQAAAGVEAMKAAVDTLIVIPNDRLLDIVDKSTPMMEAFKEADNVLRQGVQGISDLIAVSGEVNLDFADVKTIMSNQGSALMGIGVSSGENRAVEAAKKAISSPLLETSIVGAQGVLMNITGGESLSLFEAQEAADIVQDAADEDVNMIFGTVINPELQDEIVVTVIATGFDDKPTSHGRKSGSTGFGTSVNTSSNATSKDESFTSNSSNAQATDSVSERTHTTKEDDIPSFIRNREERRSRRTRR
UniProt P99110: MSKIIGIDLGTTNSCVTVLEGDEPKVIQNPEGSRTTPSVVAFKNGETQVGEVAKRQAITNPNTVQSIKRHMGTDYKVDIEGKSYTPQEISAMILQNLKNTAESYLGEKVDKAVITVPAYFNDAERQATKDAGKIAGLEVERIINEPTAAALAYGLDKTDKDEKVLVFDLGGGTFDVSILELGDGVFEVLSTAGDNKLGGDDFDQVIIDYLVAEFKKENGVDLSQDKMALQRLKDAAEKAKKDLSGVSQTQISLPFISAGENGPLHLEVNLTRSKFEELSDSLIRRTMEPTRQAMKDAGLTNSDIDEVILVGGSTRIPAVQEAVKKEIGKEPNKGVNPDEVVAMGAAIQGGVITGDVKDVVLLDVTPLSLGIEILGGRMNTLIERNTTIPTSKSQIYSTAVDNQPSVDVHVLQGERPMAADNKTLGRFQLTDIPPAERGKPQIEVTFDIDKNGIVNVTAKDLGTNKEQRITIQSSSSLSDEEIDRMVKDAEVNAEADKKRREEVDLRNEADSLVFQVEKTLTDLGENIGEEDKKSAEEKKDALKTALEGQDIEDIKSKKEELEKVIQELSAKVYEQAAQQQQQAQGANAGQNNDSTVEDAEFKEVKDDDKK

Molecular target: FtsZ-GFP (S. aureus) (UniProt P0A031)
Assay: affinity purification with mass spectrometry; FtsZ-GFP captured on anti-GFP M-270 Epoxy Dynabeads from cryogenically lysed S. aureus cells cross-linked with 1% formaldehyde; SDS-PAGE, LC-MS-MS; GFP-only strain SA112 as control

binding: binds
Substance: DnaK (from UniProt P99110 1-610)

Results are given in words; binding and its absence hold for the method and conditions named. Binding seen in cells or lysates may run through a third protein. A yes stands for co-enrichment or nearness to the bait. Other partners may have been found.
